# This is one part of the list. Most entries show no effect beyond the scatter of the controls.
# Sequences of proteins named here, by UniProt entry; tags and fusion partners are left off. A change or cut given only in a name is not applied to a line headed by its entry.
# UniProt Q9UHN1: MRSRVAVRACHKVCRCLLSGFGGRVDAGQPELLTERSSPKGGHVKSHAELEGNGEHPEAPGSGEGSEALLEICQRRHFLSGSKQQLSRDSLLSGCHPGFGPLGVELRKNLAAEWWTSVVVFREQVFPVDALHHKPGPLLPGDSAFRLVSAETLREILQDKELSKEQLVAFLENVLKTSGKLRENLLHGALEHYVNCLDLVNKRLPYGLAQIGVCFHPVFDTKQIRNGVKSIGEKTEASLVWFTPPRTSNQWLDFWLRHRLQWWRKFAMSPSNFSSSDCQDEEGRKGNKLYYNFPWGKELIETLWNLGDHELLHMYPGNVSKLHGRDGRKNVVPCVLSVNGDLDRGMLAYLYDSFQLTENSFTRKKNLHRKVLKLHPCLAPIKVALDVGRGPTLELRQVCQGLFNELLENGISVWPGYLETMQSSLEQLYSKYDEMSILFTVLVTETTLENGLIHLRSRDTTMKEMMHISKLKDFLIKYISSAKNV
# UniProt Q9UK53: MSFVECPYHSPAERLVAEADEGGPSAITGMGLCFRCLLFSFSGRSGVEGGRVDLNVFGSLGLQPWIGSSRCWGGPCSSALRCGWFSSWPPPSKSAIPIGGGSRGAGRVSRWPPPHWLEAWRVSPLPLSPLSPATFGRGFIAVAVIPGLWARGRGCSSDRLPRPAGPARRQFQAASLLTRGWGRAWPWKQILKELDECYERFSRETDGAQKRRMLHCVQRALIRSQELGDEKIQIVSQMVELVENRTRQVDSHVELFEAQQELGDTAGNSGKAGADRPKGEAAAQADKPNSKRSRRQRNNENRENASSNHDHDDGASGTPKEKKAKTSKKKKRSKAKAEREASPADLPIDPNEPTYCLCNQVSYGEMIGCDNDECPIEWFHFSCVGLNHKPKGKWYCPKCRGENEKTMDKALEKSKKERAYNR
# UniProt Q9ULQ0: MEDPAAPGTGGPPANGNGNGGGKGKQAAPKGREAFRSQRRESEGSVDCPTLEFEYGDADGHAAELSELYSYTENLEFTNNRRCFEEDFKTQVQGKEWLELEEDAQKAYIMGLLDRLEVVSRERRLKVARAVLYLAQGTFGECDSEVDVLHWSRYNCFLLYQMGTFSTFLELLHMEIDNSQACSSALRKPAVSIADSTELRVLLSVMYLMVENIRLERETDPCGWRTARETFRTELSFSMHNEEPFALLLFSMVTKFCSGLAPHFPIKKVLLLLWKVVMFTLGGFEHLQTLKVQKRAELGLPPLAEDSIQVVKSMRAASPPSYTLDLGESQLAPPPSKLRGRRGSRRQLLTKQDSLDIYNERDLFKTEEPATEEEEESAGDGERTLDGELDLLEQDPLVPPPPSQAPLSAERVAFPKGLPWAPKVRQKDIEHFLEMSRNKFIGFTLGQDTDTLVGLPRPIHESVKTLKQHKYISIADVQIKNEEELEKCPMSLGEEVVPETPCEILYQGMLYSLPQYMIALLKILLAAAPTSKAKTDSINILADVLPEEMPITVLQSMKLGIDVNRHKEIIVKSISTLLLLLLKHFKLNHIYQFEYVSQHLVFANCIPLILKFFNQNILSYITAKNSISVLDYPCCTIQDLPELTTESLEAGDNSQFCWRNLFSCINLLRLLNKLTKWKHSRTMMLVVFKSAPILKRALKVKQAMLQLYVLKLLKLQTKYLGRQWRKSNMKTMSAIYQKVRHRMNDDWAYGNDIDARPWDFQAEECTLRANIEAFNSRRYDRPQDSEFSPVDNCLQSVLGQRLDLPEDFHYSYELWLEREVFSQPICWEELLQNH
# UniProt Q9UHC7: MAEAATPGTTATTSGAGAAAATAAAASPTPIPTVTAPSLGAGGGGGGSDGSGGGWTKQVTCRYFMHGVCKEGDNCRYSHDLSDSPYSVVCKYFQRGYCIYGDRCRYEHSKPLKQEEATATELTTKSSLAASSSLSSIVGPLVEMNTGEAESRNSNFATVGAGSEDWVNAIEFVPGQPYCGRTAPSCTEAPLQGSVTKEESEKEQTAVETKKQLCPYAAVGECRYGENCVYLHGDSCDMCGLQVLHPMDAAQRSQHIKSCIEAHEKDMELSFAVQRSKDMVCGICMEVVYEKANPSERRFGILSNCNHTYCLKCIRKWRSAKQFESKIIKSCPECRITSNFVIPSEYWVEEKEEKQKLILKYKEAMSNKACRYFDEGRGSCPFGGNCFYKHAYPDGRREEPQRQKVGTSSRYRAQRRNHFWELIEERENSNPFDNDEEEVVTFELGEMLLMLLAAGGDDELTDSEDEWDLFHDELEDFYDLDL
# UniProt Q9UL25: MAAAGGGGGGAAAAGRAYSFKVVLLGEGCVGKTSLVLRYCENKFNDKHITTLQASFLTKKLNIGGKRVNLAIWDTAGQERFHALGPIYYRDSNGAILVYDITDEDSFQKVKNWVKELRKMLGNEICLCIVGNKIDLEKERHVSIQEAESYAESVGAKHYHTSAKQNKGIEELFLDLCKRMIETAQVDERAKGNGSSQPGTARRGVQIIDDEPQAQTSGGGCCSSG
# UniProt Q9UNP9: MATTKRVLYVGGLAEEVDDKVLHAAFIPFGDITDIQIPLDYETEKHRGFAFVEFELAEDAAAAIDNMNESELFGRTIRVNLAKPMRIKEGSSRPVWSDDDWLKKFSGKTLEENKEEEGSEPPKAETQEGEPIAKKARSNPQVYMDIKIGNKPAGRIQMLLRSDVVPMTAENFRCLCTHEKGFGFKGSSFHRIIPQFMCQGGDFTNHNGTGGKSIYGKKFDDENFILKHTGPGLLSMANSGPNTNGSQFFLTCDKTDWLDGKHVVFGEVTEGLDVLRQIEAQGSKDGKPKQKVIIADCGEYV
# UniProt Q9UMX5: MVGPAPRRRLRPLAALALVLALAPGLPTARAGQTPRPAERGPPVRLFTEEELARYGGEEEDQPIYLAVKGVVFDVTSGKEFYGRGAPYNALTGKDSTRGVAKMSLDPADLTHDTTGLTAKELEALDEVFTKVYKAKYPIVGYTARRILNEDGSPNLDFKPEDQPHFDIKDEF
# UniProt Q9UK39: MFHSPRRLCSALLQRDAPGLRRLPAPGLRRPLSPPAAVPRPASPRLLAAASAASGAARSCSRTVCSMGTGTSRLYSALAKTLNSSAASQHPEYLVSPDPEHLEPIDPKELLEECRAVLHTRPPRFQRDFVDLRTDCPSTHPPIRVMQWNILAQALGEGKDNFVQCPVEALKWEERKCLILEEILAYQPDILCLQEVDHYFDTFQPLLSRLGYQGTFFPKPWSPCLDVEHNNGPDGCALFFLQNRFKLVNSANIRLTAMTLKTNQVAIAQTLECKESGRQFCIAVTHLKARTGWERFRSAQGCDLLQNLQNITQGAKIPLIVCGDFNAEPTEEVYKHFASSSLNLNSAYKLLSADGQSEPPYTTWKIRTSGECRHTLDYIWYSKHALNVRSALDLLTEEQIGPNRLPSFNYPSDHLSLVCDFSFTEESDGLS
# UniProt Q9UIJ7: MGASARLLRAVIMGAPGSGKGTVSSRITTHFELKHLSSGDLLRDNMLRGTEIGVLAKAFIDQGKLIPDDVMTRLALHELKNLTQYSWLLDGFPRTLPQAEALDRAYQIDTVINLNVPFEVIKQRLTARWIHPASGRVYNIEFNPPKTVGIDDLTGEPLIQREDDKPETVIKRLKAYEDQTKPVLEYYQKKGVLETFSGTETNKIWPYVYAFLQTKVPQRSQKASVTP
# UniProt Q9UL12: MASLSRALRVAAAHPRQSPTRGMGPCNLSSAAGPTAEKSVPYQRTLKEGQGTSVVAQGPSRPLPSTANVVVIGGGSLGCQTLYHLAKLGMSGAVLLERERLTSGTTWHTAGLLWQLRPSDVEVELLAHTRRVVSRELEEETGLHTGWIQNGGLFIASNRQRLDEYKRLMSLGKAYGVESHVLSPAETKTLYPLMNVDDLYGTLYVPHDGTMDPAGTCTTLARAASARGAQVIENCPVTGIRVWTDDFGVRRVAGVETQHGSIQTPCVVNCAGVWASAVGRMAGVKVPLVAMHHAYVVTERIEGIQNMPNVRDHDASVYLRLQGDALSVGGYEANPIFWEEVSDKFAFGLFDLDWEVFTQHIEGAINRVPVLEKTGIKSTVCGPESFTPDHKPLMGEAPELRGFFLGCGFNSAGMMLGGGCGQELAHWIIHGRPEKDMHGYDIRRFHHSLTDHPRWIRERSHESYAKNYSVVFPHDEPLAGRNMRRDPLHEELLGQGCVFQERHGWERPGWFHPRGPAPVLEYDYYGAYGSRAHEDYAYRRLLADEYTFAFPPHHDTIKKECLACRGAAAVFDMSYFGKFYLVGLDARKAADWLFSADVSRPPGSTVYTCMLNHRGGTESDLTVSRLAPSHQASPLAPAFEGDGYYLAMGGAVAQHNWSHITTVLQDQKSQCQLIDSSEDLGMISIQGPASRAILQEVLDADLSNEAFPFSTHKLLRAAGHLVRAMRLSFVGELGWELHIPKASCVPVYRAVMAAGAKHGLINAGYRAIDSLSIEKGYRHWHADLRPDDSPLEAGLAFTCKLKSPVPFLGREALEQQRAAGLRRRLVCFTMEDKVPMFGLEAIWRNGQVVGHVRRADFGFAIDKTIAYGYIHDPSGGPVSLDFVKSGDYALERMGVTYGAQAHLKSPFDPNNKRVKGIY
# UniProt Q9Y263: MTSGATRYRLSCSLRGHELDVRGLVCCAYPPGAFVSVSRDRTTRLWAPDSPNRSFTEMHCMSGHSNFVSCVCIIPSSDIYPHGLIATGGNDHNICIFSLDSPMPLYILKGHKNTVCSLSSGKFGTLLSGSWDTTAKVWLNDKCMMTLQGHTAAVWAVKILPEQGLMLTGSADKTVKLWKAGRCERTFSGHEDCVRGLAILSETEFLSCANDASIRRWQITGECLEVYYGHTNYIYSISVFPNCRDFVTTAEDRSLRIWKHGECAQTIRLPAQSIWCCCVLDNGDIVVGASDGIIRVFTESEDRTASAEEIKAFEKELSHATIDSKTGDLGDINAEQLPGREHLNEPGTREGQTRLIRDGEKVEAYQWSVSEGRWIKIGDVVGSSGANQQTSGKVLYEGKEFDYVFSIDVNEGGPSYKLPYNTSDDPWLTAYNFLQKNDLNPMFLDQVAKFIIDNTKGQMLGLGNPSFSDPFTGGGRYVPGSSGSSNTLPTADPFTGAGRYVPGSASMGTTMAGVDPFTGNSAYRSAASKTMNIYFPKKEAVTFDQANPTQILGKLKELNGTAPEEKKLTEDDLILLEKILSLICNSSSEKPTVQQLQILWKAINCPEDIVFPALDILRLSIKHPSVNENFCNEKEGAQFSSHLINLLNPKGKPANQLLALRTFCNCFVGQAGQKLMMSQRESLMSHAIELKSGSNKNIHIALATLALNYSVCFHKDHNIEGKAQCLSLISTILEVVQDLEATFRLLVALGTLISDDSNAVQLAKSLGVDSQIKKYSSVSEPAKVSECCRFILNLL
# UniProt Q9UMY4: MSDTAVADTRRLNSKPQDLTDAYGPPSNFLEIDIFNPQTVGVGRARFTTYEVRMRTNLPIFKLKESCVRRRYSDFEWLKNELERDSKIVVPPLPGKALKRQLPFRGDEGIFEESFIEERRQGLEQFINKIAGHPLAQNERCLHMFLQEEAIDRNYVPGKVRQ
# UniProt Q9UHJ6: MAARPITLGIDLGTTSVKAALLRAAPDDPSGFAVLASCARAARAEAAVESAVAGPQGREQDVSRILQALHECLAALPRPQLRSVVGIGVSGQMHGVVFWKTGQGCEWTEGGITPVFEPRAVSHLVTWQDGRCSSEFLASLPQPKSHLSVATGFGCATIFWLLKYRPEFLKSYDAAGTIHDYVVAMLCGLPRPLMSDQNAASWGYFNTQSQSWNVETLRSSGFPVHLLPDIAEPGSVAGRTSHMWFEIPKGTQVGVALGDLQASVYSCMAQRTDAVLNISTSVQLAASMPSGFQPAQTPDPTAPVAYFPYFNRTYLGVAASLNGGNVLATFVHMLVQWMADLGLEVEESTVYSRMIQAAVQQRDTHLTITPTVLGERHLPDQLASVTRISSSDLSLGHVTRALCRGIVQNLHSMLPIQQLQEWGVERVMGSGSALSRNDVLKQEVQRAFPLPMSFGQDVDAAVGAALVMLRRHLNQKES
# UniProt Q9UM11, whole entry: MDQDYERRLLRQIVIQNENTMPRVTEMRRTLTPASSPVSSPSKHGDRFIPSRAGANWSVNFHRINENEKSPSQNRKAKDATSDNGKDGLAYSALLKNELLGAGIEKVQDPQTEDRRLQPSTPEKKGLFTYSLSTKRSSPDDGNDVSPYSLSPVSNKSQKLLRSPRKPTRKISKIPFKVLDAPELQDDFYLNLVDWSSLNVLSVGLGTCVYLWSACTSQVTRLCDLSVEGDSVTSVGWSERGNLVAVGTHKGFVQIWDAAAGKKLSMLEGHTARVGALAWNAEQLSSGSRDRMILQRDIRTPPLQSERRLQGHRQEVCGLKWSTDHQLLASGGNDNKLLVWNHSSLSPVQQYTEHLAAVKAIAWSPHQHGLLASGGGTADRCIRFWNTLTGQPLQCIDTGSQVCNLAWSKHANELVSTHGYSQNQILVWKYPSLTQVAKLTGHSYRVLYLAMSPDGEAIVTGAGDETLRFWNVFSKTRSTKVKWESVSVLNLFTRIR
# UniProt Q9UI09, whole entry: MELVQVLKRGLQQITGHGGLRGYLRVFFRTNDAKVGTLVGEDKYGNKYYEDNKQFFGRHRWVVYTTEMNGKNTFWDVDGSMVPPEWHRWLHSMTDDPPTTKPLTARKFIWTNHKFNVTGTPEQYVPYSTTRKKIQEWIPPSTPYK
# Compound: Cc1nc(Nc2ncc(C(=O)Nc3c(C)cccc3Cl)s2)cc(N2CCN(CCO)CC2)n1 [dasatinib]
# Test: log2 fold change of tryptic peptide abundance, ligand vs vehicle (limited proteolysis) (log2 ratio); higher = more trypsin-susceptible (destabilized)
# Settings: ligand concentration: 5 uM; sample: K562 cleared lysate
row,Target,log2 fold change
1,"POLG2 (peptide sequence: VDAGQPELLTER, peptide start residue: 25) (UniProt Q9UHN1)",0.17
2,"ING1 (peptide sequence: GEAAAQADKPNSK, peptide start residue: 279) (UniProt Q9UK53)",0.183
3,"UniProt Q9UKZ1 (peptide sequence: LLTAAEQR, peptide start residue: 13)",0.152
4,"ZMYND8 (peptide sequence: SRFQLNLDKTIESCK, peptide start residue: 554) (UniProt Q9ULU4)",0.375
5,"BLOC1S6 (peptide sequence: FKECHSMLDINALFAEAK, peptide start residue: 92) (UniProt Q9UL45)",0.417
6,"LCMT1 (peptide sequence: RFAVSIGYWHDPYIQHFVR, peptide start residue: 38) (UniProt Q9UIC8)",-0.618
7,"STRIP2 (peptide sequence: QKDIEHFLEMSR, peptide start residue: 426) (UniProt Q9ULQ0)",-0.206
8,"MKRN1 (peptide sequence: SCIEAHEK, peptide start residue: 258) (UniProt Q9UHC7)",-0.312
9,"RAB21 (peptide sequence: GNGSSQPGTAR, peptide start residue: 192) (UniProt Q9UL25)",0.0658
10,"PPIE (peptide sequence: VNLAKPMR, peptide start residue: 79) (UniProt Q9UNP9)",0.0527
11,"EVL (peptide sequence: QVMEQHQQQR, peptide start residue: 140) (UniProt Q9UI08)",-0.75
12,"EIF2B4 (peptide sequence: ASPSTAGETPSGVK, peptide start residue: 129) (UniProt Q9UI10)",-0.0669
13,"TIMELESS (peptide sequence: AGLASPEEEDAVGKEPLK, peptide start residue: 1145) (UniProt Q9UNS1)",-0.131
14,"NENF (peptide sequence: YPIVGYTAR, peptide start residue: 137) (UniProt Q9UMX5)",0.359
15,"UniProt Q9UK39 (peptide sequence: QFCIAVTHLK, peptide start residue: 279)",-0.653
16,"RWDD2A (peptide sequence: HKSEHVFQILFGIESK, peptide start residue: 273) (UniProt Q9UIY3)",-0.157
17,"UniProt Q9UKT9 (peptide sequence: SSLEEHKER, peptide start residue: 214)",0.582
18,"AK3 (peptide sequence: ITTHFELK, peptide start residue: 27) (UniProt Q9UIJ7)",-0.315
19,"MYO6 (peptide sequence: IPFIRPADQYKDPQSK, peptide start residue: 1182) (UniProt Q9UM54)",-0.359

# In another format: results already given.
row | Target | log2 fold change
1 | POLG2 (peptide sequence: VDAGQPELLTER, peptide start residue: 25) (UniProt Q9UHN1) | 0.17
2 | ING1 (peptide sequence: GEAAAQADKPNSK, peptide start residue: 279) (UniProt Q9UK53) | 0.183
7 | STRIP2 (peptide sequence: QKDIEHFLEMSR, peptide start residue: 426) (UniProt Q9ULQ0) | -0.206
9 | RAB21 (peptide sequence: GNGSSQPGTAR, peptide start residue: 192) (UniProt Q9UL25) | 0.0658
11 | EVL (peptide sequence: QVMEQHQQQR, peptide start residue: 140) (UniProt Q9UI08) | -0.75
12 | EIF2B4 (peptide sequence: ASPSTAGETPSGVK, peptide start residue: 129) (UniProt Q9UI10) | -0.0669
13 | TIMELESS (peptide sequence: AGLASPEEEDAVGKEPLK, peptide start residue: 1145) (UniProt Q9UNS1) | -0.131
14 | NENF (peptide sequence: YPIVGYTAR, peptide start residue: 137) (UniProt Q9UMX5) | 0.359
17 | UniProt Q9UKT9 (peptide sequence: SSLEEHKER, peptide start residue: 214) | 0.582
19 | MYO6 (peptide sequence: IPFIRPADQYKDPQSK, peptide start residue: 1182) (UniProt Q9UM54) | -0.359

# Carrying on:

row,Target,log2 fold change
1,"SARDH (peptide sequence: EALEQQR, peptide start residue: 926) (UniProt Q9UL12)",-0.00521
2,"PLAA (peptide sequence: TMNIYFPK, peptide start residue: 530) (UniProt Q9Y263)",-0.241
3,"UNC13A (peptide sequence: LKDHMVR, peptide start residue: 1335) (UniProt Q9UPW8)",0.188
4,"FOXJ3 (peptide sequence: HNLSLNKCFLK, peptide start residue: 128) (UniProt Q9UPW0)",0.51
5,"RAB22A (peptide sequence: VCLLGDTGVGK, peptide start residue: 8) (UniProt Q9UL26)",-0.676
6,"TNRC6B (peptide sequence: STWSPDPIGHNPTHLSNK, peptide start residue: 1567) (UniProt Q9UPQ9)",-0.159
7,"SIX4 (peptide sequence: QENGMESASEGQEAHR, peptide start residue: 18) (UniProt Q9UIU6)",0.769
8,"PHF8 (peptide sequence: ATLIIRPK, peptide start residue: 666) (UniProt Q9UPP1)",-0.113
9,"PUF60 (peptide sequence: SVFEAFGK, peptide start residue: 244) (UniProt Q9UHX1)",0.0676
10,"SNX12 (peptide sequence: QGLEQFINK, peptide start residue: 120) (UniProt Q9UMY4)",0.103
11,"DNPEP (peptide sequence: LLQAGFSELK, peptide start residue: 52) (UniProt Q9ULA0)",0.255
12,"ATP6V1H (peptide sequence: LMVHNWEYLGK, peptide start residue: 459) (UniProt Q9UI12)",-0.0774
13,"SHPK (peptide sequence: VMGSGSALSR, peptide start residue: 427) (UniProt Q9UHJ6)",-0.307
14,"TRAPPC2L (peptide sequence: KLHNSYTDVMCNPFYNPGDR, peptide start residue: 102) (UniProt Q9UL33)",-0.166
15,"FZR1 (peptide sequence: DATSDNGKDGLAYSALLK, peptide start residue: 79) (UniProt Q9UM11)",-0.000318
16,"CDC14A (peptide sequence: TSLSSGATVR, peptide start residue: 464) (UniProt Q9UNH5)",0.391
17,"NDUFA12 (peptide sequence: WLHSMTDDPPTTKPLTAR, peptide start residue: 89) (UniProt Q9UI09)",0.000525
18,"UniProt Q9UK61 (peptide sequence: SVGGDSDTEDMR, peptide start residue: 694)",1.07

# From the supplement of paper PMC12819154, “High-throughput peptide-centric local stability assay extends protein–ligand identification to membrane proteins, tissues and bacteria” (Nature Structural & Molecular Biology, 2025)
